Data from paper PMC12062478, “Screening herbal and natural product libraries to aid discovery of novel allosteric modulators of human P2X7” (Purinergic Signalling, 2024).

Test system: Calf thymus DNA
Assay: Cell-free DNA YO-PRO-1 fluorescence interference assay
Settings: calf thymus DNA 1 µg/mL, 100 nM–100 µM compound

Compound	Interference with YO-PRO-1 fluorescence
O=C1CSC(=O)N1C(CCc1ccncc1)COc1ccc(-c2cccc([N+](=O)[O-])c2)cc1 (centres unmarked) [AZ11645373, reference compound]	no interfering effect
COc1ccc2cc3[n+](cc2c1OC)CCc1cc2c(cc1-3)OCO2 [Berberine]	no interference
COc1c2ccoc2cc2oc(=O)ccc12 [Bergapten]	no interference
O=C(O[C@@H]1Cc2c(O)cc(O)cc2O[C@@H]1c1ccc(O)c(O)c1)c1cc(O)c(O)c(O)c1 [ECG, epicatechin gallate]	displayed interference
O=C(O[C@@H]1Cc2c(O)cc(O)cc2O[C@@H]1c1cc(O)c(O)c(O)c1)c1cc(O)c(O)c(O)c1 [EGCG, epigallocatechin gallate]	displayed interference
Cc1cc(O)c2c(c1)C(=O)c1cc(O)cc(O)c1C2=O [Emodin]	displayed interference
O=c1c(-c2ccc(O)cc2)coc2cc(O)cc(O)c12 [Genistein]	displayed interference
O=c1c(O)c(-c2ccc(O)cc2)oc2cc(O)cc(O)c12 [Kampferol, kaempferol]	displayed interference
O=c1c(O)c(-c2ccc(O)c(O)c2)oc2cc(O)cc(O)c12 [Quercetin]	displayed interference
COc1cc2ccc(=O)oc2cc1O [Scopoletin]	no interference
Methyl syringate	no interference
